These are yes or no findings as the source states them, for the method shown. Some entries that bind do so weakly or less than the wild type.

In this test the target is GTP cyclohydrolase I from Listeria monocytogenes (L. monocytogenes). Kind of test: AUC; equilibrium sedimentation and boundary sedimentation (9.6 S); conditions not shown; both purified.

B1: GTP cyclohydrolase I from Listeria monocytogenes (enzyme, L. monocytogenes)
chain: EQIDKQKIADAVKVILEAVGENPDREGLIDTPMRVARMYEEVFAGLKKDPSVHFDTIFEEQHEELVLVKDIRFSSMCEHHLVPFFGVAHVAYLPQNGRVAGLSKLARVVDDVSRRPQLQERITTTVAEIMMEKLKPLGVMVIMEAEHMCMTIRGVNKPGTKTITSAVRGAFKNDDKLRSEVLALIKHN
modifications: Cys78 and Cys150 oxidized to the disulfide level (in the crystal; zinc lost)
notes: GTP cyclohydrolase I (folE), L. monocytogenes ATCC BAA-679; the natural stretch begins at Glu (first cloned triplet GAG) and runs to the stop codon; the printed Cys78 and Cys150 fit numbering with this Glu as residue 2; D5-symmetric homodecamer; also called LmGTPCHI; His6-EK-LmGTP-CHI; source: E. coli XL1-Blue (plasmid pNCO-His6-EK-LmGTP-CHI), purified (nickel-NTA agarose, Superdex 200); not …
Turning to B1, the binding result was “binds”.

(Values after article PMC6718149, “Structure of GTP cyclohydrolase I from Listeria monocytogenes, a potential anti-infective drug target” (Acta Crystallographica. Section F, Structural Biology …, 2019).)
